According to PubChem BioAssay AID651768 (National Center for Advancing Translational Sciences (NCATS), 2012):
In all, about 360,000 compounds went through this assay and about 1,700 (0.47%) were called active. This list was built around the results that the source calls inconclusive (neither active nor inactive); the mix of calls is not that of the screen. Calls follow the shape of the dose curve; as a rule, active = well fitted inhibition curve with a large enough effect; inconclusive = small, poorly fitted or top-dose-only effect; inactive = no such curve, though single readings can be large or run the other way. A potency beside an inconclusive call is a rough fit, not a confirmed value.

By UniProt entry, the sequences of proteins in these tests, tags left out.
UniProt Q14191, whole entry, looked up: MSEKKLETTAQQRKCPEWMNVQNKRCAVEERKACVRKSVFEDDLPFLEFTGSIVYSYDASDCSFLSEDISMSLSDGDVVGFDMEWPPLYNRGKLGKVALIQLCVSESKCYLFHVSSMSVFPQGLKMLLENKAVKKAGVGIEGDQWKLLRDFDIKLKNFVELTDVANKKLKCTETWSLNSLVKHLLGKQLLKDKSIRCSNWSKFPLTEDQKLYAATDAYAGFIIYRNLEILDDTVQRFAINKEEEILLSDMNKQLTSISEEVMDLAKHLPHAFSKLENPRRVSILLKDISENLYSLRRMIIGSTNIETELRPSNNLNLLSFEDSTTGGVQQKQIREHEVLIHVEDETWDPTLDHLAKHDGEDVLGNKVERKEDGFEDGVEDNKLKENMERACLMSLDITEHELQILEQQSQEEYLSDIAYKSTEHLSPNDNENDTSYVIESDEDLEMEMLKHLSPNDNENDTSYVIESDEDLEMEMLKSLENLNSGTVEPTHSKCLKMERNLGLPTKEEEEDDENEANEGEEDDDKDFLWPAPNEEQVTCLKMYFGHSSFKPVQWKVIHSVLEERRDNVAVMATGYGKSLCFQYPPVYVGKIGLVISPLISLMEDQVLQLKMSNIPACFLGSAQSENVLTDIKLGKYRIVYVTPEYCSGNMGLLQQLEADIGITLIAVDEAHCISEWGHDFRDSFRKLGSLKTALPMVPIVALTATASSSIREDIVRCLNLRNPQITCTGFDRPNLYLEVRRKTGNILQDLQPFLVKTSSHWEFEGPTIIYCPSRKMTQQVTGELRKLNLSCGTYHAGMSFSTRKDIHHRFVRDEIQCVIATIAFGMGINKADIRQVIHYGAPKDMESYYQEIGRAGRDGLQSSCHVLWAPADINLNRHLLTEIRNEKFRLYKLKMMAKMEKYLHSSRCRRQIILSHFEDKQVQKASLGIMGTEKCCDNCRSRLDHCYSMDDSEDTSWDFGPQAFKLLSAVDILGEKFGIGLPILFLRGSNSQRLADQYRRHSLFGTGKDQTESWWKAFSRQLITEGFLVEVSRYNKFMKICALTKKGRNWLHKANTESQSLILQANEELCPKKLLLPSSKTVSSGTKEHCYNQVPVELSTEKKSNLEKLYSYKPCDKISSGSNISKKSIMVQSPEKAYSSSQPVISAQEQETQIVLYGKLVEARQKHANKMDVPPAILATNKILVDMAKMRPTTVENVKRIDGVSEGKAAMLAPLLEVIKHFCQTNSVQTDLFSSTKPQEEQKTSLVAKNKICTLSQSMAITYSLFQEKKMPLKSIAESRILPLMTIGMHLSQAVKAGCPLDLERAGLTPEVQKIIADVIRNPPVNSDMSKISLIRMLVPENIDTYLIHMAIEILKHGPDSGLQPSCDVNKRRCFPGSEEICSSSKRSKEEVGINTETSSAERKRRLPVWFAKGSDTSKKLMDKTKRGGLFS

These compounds were tested against Bifunctional 3'-5' exonuclease/ATP-dependent helicase WRN (Homo sapiens) (UniProt Q14191) (assay: qHTS for Inhibitors of WRN Helicase). Conditions: WRN helicase unwinding, fluorescent forked duplex, kinetic; activity change, negative = inhibition: at 114 µM (top of the series) unless noted.
Method in brief: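 Enzyme (20 nM final) and test compound sit together 15 min at room temperature before substrate addition. Substrate is a single-forked duplex oligonucleotide (100 nM) labelled with fluorophore and quencher, with 2 mM ATP; helicase unwinding raises red fluorescence, read kinetically.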
% is scaled to controls: 0 for no effect and ±100 for the full control effect; potency is read from the fitted curve at half-maximal effect.
Also: nearly all actives have a fitted effect of over 55% in size.

| Compound | Potency | activity change, negative = inhibition |
| --- | --- | --- |
| COC(=O)c1sc(N)c(C(=O)OC)c1COC(=O)C1CC(=O)N(Cc2ccco2)C1 (stereo not drawn) | inconclusive: 56.2 µM [inhibitor, partial curve] | – |
| CC(C)(C)c1cc(C(c2cccnc2)N2CCN(CCO)CC2)cc(C(C)(C)C)c1O (stereo not drawn) | inconclusive: 56.2 µM [inhibitor, partial curve] | – |
| COc1ccc2c(c1)c(C(=O)N/N=C/c1ccc(O)c(O)c1)c(C)n2C | inconclusive: 50.1 µM [inhibitor, partial curve] | – |
| O=C(NC1CCCCC1)C(c1ccc(F)cc1)N(Cc1ccc2c(c1)OCO2)C(=O)c1cnsn1 (stereo not drawn) | inactive | – |
| COc1ccc([N+](=O)[O-])c(S(=O)(=O)c2ccccc2)n1 | active: 31.6 µM | – |
| Cc1cc(NS(=O)(=O)c2ccc(Nc3nc(-c4ccc(O)cc4)cs3)cc2)no1 | inconclusive: 25.1 µM [inhibitor, full curve, poor fit] | – |
| Nc1nonc1C(=O)N/N=C/c1ccc(-c2ccc(Cl)c(C(=O)O)c2)o1 | inconclusive: 56.2 µM [inhibitor, partial curve] | – |
| COCCCN(Cc1cc(OC)c(OC)c(OC)c1)C(=S)Nc1cccc(SC)c1 | inactive | – |
| CCN(CC)CCC=C(c1cccs1)c1cccs1 | inconclusive: 28.2 µM [inhibitor, full curve] | – |
| NC(=NCCc1c[nH]c2ccccc12)NS(=O)(=O)c1ccc2ccccc2c1 | inconclusive: 39.8 µM [inhibitor, single point] | – |
| Cc1cc(C)n(-c2nc(Nc3ccccc3)nc(-n3nc(C)cc3C)n2)n1 | inconclusive: 13.4 µM [inhibitor, partial curve] | – |
| Cc1cc(C)nc(NC(=O)c2ccc([N+](=O)[O-])o2)n1 | inactive | – |
| Cc1ccc(NC(=O)c2cc(-c3ccco3)nc3ccccc23)cc1S(=O)(=O)N1CCOCC1 | inconclusive: 28.2 µM [inhibitor, single point] | – |
| CN(C)CCNCCCNc1c2ccccc2nc2cccc([N+](=O)[O-])c12 | inconclusive: 15.8 µM [inhibitor, full curve, poor fit] | – |
| CCOc1cc(/C=N/Nc2nc(-c3cccc(S(=O)(=O)N4CCCC4)c3)cs2)ccc1O | inconclusive: 112 µM [inhibitor, single point] | – |
| COc1cc(NS(=O)(=O)c2ccc(NC(=S)NC(=O)c3sc4ccccc4c3Cl)cc2)ncn1 | inconclusive: 20 µM [inhibitor, partial curve] | – |
| O=C1NC(=S)NC(=O)C1Nc1ccc(Cl)cc1 | – | inconclusive: -36.4% [inhibitor] |
| O=C(N=NC(=O)c1ccco1)c1ccc2c(O)n(N3C(=O)c4ccccc4C3=O)c(O)c2c1 | inactive | – |
| Cc1cc(NC(=O)CCC(=O)NNC(=O)c2ccc(C(C)(C)C)cc2)no1 | inconclusive: 39.8 µM [inhibitor, single point] | – |
| Cc1ccc(C)c(-n2c3nc(=O)[nH]c(=O)c-3cc3cc([N+](=O)[O-])ccc32)c1 | active: 79.4 µM | – |
| O=C(CN1C(=O)CC(c2ccco2)Sc2ccccc21)Nc1ccccc1F (stereo not drawn) | inconclusive: 0.752 µM [inhibitor, single point] | – |
| S=c1[nH]nc(-c2ccccc2)n1/N=C/C=C/c1ccco1 | inactive | – |
| CCOC(=O)CS(=O)(=O)c1nc(-c2ccc(F)cc2)cc(C(F)(F)F)n1 | active: 50.1 µM | – |

| Compound | Potency | activity change, negative = inhibition |
| --- | --- | --- |
| COc1cc(/C=C/[N+](=O)[O-])ccc1OCc1cccc(C(=O)O)c1 | active: 20 µM | – |
| N#C/C(=C(/O)CCl)c1nc2c(s1)CCc1ccccc1-2 | inconclusive: 79.4 µM [inhibitor, single point] | – |
| Cc1cc(C)cc(C(=O)NCC(=O)OCc2nc(N)nc(Nc3ccccc3C)n2)c1 | inactive | – |
| CCOc1ccc(S(=O)(=O)NCc2ccncc2)cc1NC(=O)c1ccccc1F | inconclusive: 28.2 µM [inhibitor, single point] | – |
| C#CCOCCOCCOCCNc1nc(N2CCN(C(=O)C([C@@H](C)CC)n3cc(C(N)COC(=O)C(F)(F)F)nn3)CC2)nc(N2CCN(C(=O)[C@H](CCCCN)n3cc(C(N)CC(C)C)nn3)CC2)n1 (stereo partly drawn) | inactive | – |
| O=C(Nc1cc(C(=O)Nc2ccccc2C(=O)O)cc(C(=O)Nc2ccccc2C(=O)O)c1)c1ccccc1 | active: 39.8 µM | – |
| CC1=NN(Cc2ccccc2)C(=O)C1C(c1ccc(Cl)cc1)C(C#N)C#N (stereo not drawn) | inconclusive: 56.2 µM [inhibitor, partial curve] | – |
| Oc1c(Br)cc(Br)cc1C=NCc1ccc(F)cc1 | inconclusive: 31.6 µM [inhibitor, single point] | – |
| O=S(=O)(/N=C/c1c(O)ccc2ccccc12)c1ccccc1 | inconclusive: 25.1 µM [inhibitor, partial curve] | – |
| O=C1ON=C(c2ccc(Cl)cc2)/C1=C/c1ccc(O)cc1 | active: 9.47 µM | – |
| O=C(Nc1ccc(F)cc1F)C1CCN(S(=O)(=O)c2cccnc2)CC1 | inactive | – |
| CC1(C)C(C=C(Cl)Cl)C1C(=O)Nc1ccc([N+](=O)[O-])cc1 (stereo not drawn) | inconclusive: 17.8 µM [inhibitor, full curve, poor fit] | – |
| O=C(O)c1cccc(NS(=O)(=O)c2ccc(NC(=O)c3ccco3)cc2)c1 | inconclusive: 4.74 µM [inhibitor, single point] | – |
| CCOC(=O)c1c(C)oc(=O)c(CC)c1O | inactive | – |
| Cc1cc(/C=c2\sc3nc4ccccc4n3c2=O)c(C)n1-c1ccc(C(=O)O)cc1 | inconclusive: 17.8 µM [inhibitor, full curve, poor fit] | – |
| CCC1(C)Cc2ccccc2-c2[nH][nH]c(=O)c21 (stereo not drawn) | inconclusive: 70.8 µM [inhibitor, single point] | – |
| CC(C)n1cc(/C=N/NC(=O)COc2cccc3cccnc23)c2ccccc21 | inconclusive: 11.2 µM [inhibitor, full curve, poor fit] | – |
| Brc1ccc(-c2nn3c(-c4ccccn4)nnc3s2)o1 | inconclusive: 50.1 µM [inhibitor, partial curve] | – |
| O=C(N/N=C/c1cc(Cl)c(O)c(Cl)c1)c1cc2c(ccc3ccccc32)o1 | inconclusive: 56.2 µM [inhibitor, partial curve] | – |
| N/C(=N\OC(=O)c1ccc2ccccc2c1)c1ccncc1 | inactive | – |
| Cn1c2ccccc2c2cc(/C=N/NC(=O)c3cc(O)cc(O)c3)ccc21 | inconclusive: 35.5 µM [inhibitor, partial curve] | – |
| CN(CCOc1ccccc1)CC(=O)Nc1ccc(Cl)cc1[N+](=O)[O-] | inconclusive: 25.1 µM [inhibitor, full curve] | – |
| C#CCOCCOCCOCCNc1nc(N2CCN(C(=O)[C@H](CO)n3cc([C@@H](N)C(C)C)nn3)CC2)nc(N2CCN(C(=O)[C@H](CCC(=O)O)n3cc([C@@H](N)[C@H](C)CC)nn3)CC2)n1 | inactive | – |

Three compounds drawn at random from those above, as already listed:

| Compound | Potency | activity change, negative = inhibition |
| --- | --- | --- |
| N#C/C(=C(/O)CCl)c1nc2c(s1)CCc1ccccc1-2 | inconclusive: 79.4 µM [inhibitor, single point] | – |
| Cn1c2ccccc2c2cc(/C=N/NC(=O)c3cc(O)cc(O)c3)ccc21 | inconclusive: 35.5 µM [inhibitor, partial curve] | – |
| C#CCOCCOCCOCCNc1nc(N2CCN(C(=O)[C@H](CO)n3cc([C@@H](N)C(C)C)nn3)CC2)nc(N2CCN(C(=O)[C@H](CCC(=O)O)n3cc([C@@H](N)[C@H](C)CC)nn3)CC2)n1 | inactive | – |

Further compounds follow.

| Compound | Potency | activity change, negative = inhibition |
| --- | --- | --- |
| Cc1ccc(S(=O)(=O)/N=C2\C=C(NS(=O)(=O)c3ccccc3)C(=O)c3ccccc32)cc1 | inconclusive: 50.1 µM [inhibitor, partial curve] | – |
| CN(C(=S)NC(=O)c1ccc(F)cc1)C1CCCCC1 | inactive | – |
| COc1cc(C2c3c([nH]c(=O)[nH]c3=O)Nc3ccc4ccccc4c32)cc(OC)c1OC (stereo not drawn) | active: 20 µM | – |
| CCOc1ccc(S(=O)(=O)Nc2cccc(C(=O)NCC(c3ccc(OC)cc3)N3CCOCC3)c2)cc1 (stereo not drawn) | inconclusive: 35.5 µM [inhibitor, full curve, poor fit] | – |
| O=C(Cc1cccs1)Nc1ccc(S(=O)(=O)Nc2ncccn2)cc1 | inconclusive: 16.8 µM [inhibitor, partial curve] | – |
| CCN(CC)C(=S)SC1CCCCN(C(=O)c2ccccc2)C1=O (stereo not drawn) | inactive | – |
| C=CCOc1cccc(/C=C\c2nc(O)c([N+](=O)[O-])c(=O)[nH]2)c1 | inactive | – |
| Cc1ccccc1N=Cc1cccc(O)c1O | active: 11.2 µM | – |
| Cc1ccc(NC(=O)C2=NNC(=O)CC2)cc1S(=O)(=O)Nc1ccc(SC(F)F)cc1 | inconclusive: 39.8 µM [inhibitor, full curve, poor fit] | – |
| O=C(CSc1ccc2ccccc2c1)NCCc1ccc(O)c(O)c1 | inconclusive: 70.8 µM [inhibitor, single point] | – |
| Cc1ccccc1NC(=O)C1Cc2ccccc2C(=O)O1 (stereo not drawn) | inactive | – |
| Oc1cccc(/C=N/NC(=S)Nc2cccnc2)c1O | inconclusive: 56.2 µM [inhibitor, partial curve] | – |
| CC(=O)Nc1ccc(NC(=O)C(C)OC(=O)c2ccc(OCc3c(C)noc3C)cc2)cc1 (stereo not drawn) | inactive | – |
| Cc1cc(C)nc(NNC(=O)NC2CCCCC2)n1 | inactive | – |
| COc1ccc(-c2cc(NC=O)c3ncc(-c4ccc(OC)c(OC)c4)n3c2)c(OC)c1 | inconclusive: 35.5 µM [inhibitor, single point] | – |
| CCN1/C(=C/C=C/c2oc3ccc(-c4ccccc4)cc3[n+]2CC)Oc2ccc(-c3ccccc3)cc21 | active: 4.74 µM | – |
| CN(C)c1ccc(/C=C/C(=O)c2ccccc2O)cc1 | inconclusive: 70.8 µM [inhibitor, partial curve] | – |
| COc1ccc(C2=Nn3c(nnc3-c3cc(C)[nH]n3)SC2)cc1 | inconclusive: 28.2 µM [inhibitor, single point] | – |
| Cc1ccc(NN2C(=O)C=C(c3ccc(Cl)cc3)C2=O)cc1 | inconclusive: 79.4 µM [inhibitor, partial curve] | – |
| COc1ccc(-c2nnc3sc(C(C)N4C(=O)c5ccccc5C4=O)nn23)cc1 (stereo not drawn) | inactive | – |
| O=C(C1CC(=O)N(c2ccc(F)cc2)C1)N1CCCCC1 (stereo not drawn) | inactive | – |
| CCOc1ccc2c(ccc(/C=C/c3cc(C)c4cccnc4c3O)[n+]2C)c1 | active: 10 µM | – |
